Data as given in PubChem BioAssay AID1224827 (NIAID, 2016)
In all, the deposit lists about 3,800 reagents; below is a random part of them. Of all reagents, about 2,200 (57%) are marked active. 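Active means a strong reporter change in either direction; calls are per siRNA, not per gene; qiagen siRNAs gave weaker effects.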 The numbers tell different reagents against one gene apart. Not all columns of the deposit are shown. Reagent sequences are not shown.

- Test: 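Identify regulators of the macrophage TNF-alpha response to bacterial LPS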 (follow-up of hits)
- Cell system: RAW264.7 G9 mouse macrophage reporter clone
- Reagent: single siRNA against mouse genes, 100 nM siRNA
- Duration: siRNA for 2 days, then LPS about 16 h
- Challenge: bacterial lipopolysaccharide (LPS), 10 ng/ml, cells fixed after overnight (about 16 h) stimulation
- Measured: 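TNF promoter reporter red fluorescence in nuclei, background subtracted, normalised per plate and to non-targeting control siRNA, as z-scores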
- Direction: TNF reporter z-score, mean: higher = stronger Tnf promoter reporter signal; gene median z, three same-vendor siRNAs: higher = stronger Tnf reporter signal for the gene
- Call rule: 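Active siRNA: replicate-mean z-score of 2 or more, or -2 or less; no calls for control wells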

The opening 3 records, ahead of the listing:
target | reagent no. | TNF reporter z-score, mean | gene median z, three same-vendor siRNAs | outcome
Ndrg4 | 1 | -1.26 | -3.52 | inactive
Ndrg4 | 2 | -3.52 | -3.52 | active
Ndrg4 | 3 | -4.51 | -3.52 | active

Main list, repeating the preview:
target | reagent no. | TNF reporter z-score, mean | gene median z, three same-vendor siRNAs | outcome
Ndrg4 | 1 | -1.26 | -3.52 | inactive
Ndrg4 | 2 | -3.52 | -3.52 | active
Ndrg4 | 3 | -4.51 | -3.52 | active
Ndrg4 | 4 | 3.97 | 0.932 | active
Ndrg4 | 5 | 0.649 | 0.932 | inactive
Ndrg4 | 6 | -0.134 | 0.932 | inactive
Fabp6 | 1 | 4.06 | 2.59 | active
Fabp6 | 2 | 2.82 | 2.59 | active
Fabp6 | 3 | -3.29 | 2.59 | active
Fabp6 | 4 | 1.02 | -1.04 | inactive
Fabp6 | 5 | 0.584 | -1.04 | inactive
Fabp6 | 6 | -1.38 | -1.04 | inactive
Aplp2 | 1 | -1.36 | -2.57 | inactive
Aplp2 | 2 | -2.57 | -2.57 | active
Aplp2 | 3 | -3.62 | -2.57 | active
Aplp2 | 4 | 0.401 | -0.806 | inactive
Aplp2 | 5 | -0.543 | -0.806 | inactive
Aplp2 | 6 | -2.35 | -0.806 | active
Rbmx | 1 | -1.79 | -3.18 | inactive
Rbmx | 2 | -3.18 | -3.18 | active
Rbmx | 3 | -3.97 | -3.18 | active
Rpl11 | 1 | -3.02 | -3.81 | active
Rpl11 | 2 | -3.43 | -3.81 | active
Rpl11 | 3 | -4.25 | -3.81 | active
Rpl11 | 4 | 0.448 | -2.39 | inactive
Rpl11 | 5 | -2.39 | -2.39 | active
Rpl11 | 6 | -3.31 | -2.39 | active
Inppl1 | 1 | -2.15 | -3.08 | active
Inppl1 | 2 | -3.08 | -3.08 | active
Inppl1 | 3 | -4.73 | -3.08 | active
Inppl1 | 4 | 5.67 | 2.01 | active
Inppl1 | 5 | 4.22 | 2.01 | active
Inppl1 | 6 | 0.641 | 2.01 | inactive
Etf1 | 1 | 4.01 | -3.78 | active
Etf1 | 2 | -4.08 | -3.78 | active
Etf1 | 3 | -4.1 | -3.78 | active
Etf1 | 4 | -0.443 | -2.22 | inactive
Etf1 | 5 | -1.38 | -2.22 | inactive
Etf1 | 6 | -3.25 | -2.22 | active
